Reference: US20060257938A1, “Method of screening for drugs that block ligand binding to a lipid binding protein” (priority 2005, published 2006)

B1: 38G1, 72A (protein, listed as Rattus norvegicus)
chain: AFDGTWKVDRNENYEKFMEKMGINVVKRKLGAHDNLKGTITQEGNKFTVKESSNFRNIDVVFELGVDFAYSAADGTELTGTWTMEGNKLVGKFKRVDNGKELIAVREISGNELIQTYTYEGVEAKRIFKKE
modifications: PEPTIDE (1)...(131) wild-type rat intestinal fatty acid binding protein
B2: 38H1, 72A (protein, listed as Rattus norvegicus)
chain: B1 chain with G38H
modifications: PEPTIDE (1)...(131) wild-type rat intestinal fatty acid binding protein
B3: 38I3, 72A (protein, listed as Rattus norvegicus)
chain: B1 chain with G38I
modifications: PEPTIDE (1)...(131) wild-type rat intestinal fatty acid binding protein
B4: 38K1, 72A (protein, listed as Rattus norvegicus)
chain: B1 chain with G38K
modifications: PEPTIDE (1)...(131) wild-type rat intestinal fatty acid binding protein
B5: 38N1, 72A (protein, listed as Rattus norvegicus)
chain: B1 chain with G38N
modifications: PEPTIDE (1)...(131) wild-type rat intestinal fatty acid binding protein
B6: 38Q1, 72A (protein, listed as Rattus norvegicus)
chain: B1 chain with G38Q
modifications: PEPTIDE (1)...(131) wild-type rat intestinal fatty acid binding protein
B7: 38S1, 72A (protein, listed as Rattus norvegicus)
chain: B1 chain with G38S
modifications: PEPTIDE (1)...(131) wild-type rat intestinal fatty acid binding protein
B8: 38T3, 72A (protein, listed as Rattus norvegicus)
chain: B1 chain with G38T
modifications: PEPTIDE (1)...(131) wild-type rat intestinal fatty acid binding protein
B9: 38V2, 72A (protein, listed as Rattus norvegicus)
chain: B1 chain with G38V
modifications: PEPTIDE (1)...(131) wild-type rat intestinal fatty acid binding protein
B10: 34V, 72A (protein, listed as Rattus norvegicus)
chain: B1 chain with D34V, G38L
modifications: PEPTIDE (1)...(131) wild-type rat intestinal fatty acid binding protein
B11: 34W, 72A (protein, listed as Rattus norvegicus)
chain: B1 chain with D34W, G38L
modifications: PEPTIDE (1)...(131) wild-type rat intestinal fatty acid binding protein
B12: 34Y, 72A (protein, listed as Rattus norvegicus)
chain: B1 chain with D34Y, G38L
modifications: PEPTIDE (1)...(131) wild-type rat intestinal fatty acid binding protein
B13: 36A, 72A (protein, listed as Rattus norvegicus)
chain: B1 chain with L36A, G38L
modifications: PEPTIDE (1)...(131) wild-type rat intestinal fatty acid binding protein
B14: 36C3, 72A (protein, listed as Rattus norvegicus)
chain: B1 chain with L36C, G38L
modifications: PEPTIDE (1)...(131) wild-type rat intestinal fatty acid binding protein
B15: 36D1, 72A (protein, listed as Rattus norvegicus)
chain: B1 chain with L36D, G38L
modifications: PEPTIDE (1)...(131) wild-type rat intestinal fatty acid binding protein
B16: 36E2, 72A (protein, listed as Rattus norvegicus)
chain: B1 chain with L36E, G38L
modifications: PEPTIDE (1)...(131) wild-type rat intestinal fatty acid binding protein
B17: 36F1, 72A (protein, listed as Rattus norvegicus)
chain: B1 chain with L36F, G38L
modifications: PEPTIDE (1)...(131) wild-type rat intestinal fatty acid binding protein
B18: 36G2, 72A (protein, listed as Rattus norvegicus)
chain: B1 chain with L36G, G38L
modifications: PEPTIDE (1)...(131) wild-type rat intestinal fatty acid binding protein
B19: 36H1, 72A (protein, listed as Rattus norvegicus)
chain: B1 chain with L36H, G38L
modifications: PEPTIDE (1)...(131) wild-type rat intestinal fatty acid binding protein
B20: 36I1, 72A (protein, listed as Rattus norvegicus)
chain: B1 chain with L36I, G38L
modifications: PEPTIDE (1)...(131) wild-type rat intestinal fatty acid binding protein
B21: 36K, 72A (protein, listed as Rattus norvegicus)
chain: B1 chain with L36K, G38L
modifications: PEPTIDE (1)...(131) wild-type rat intestinal fatty acid binding protein
B22: 102N, 72A (protein, listed as Rattus norvegicus)
chain: B1 chain with G38L, L102N
modifications: PEPTIDE (1)...(131) wild-type rat intestinal fatty acid binding protein
B23: 36L, 72A wt (protein, listed as Rattus norvegicus)
chain: B1 chain with G38L
modifications: PEPTIDE (1)...(131) wild-type rat intestinal fatty acid binding protein
B24: 36M, 72A (protein, listed as Rattus norvegicus)
chain: B1 chain with L36M, G38L
modifications: PEPTIDE (1)...(131) wild-type rat intestinal fatty acid binding protein
B25: 36N, 72A (protein, listed as Rattus norvegicus)
chain: B1 chain with L36N, G38L
modifications: PEPTIDE (1)...(131) wild-type rat intestinal fatty acid binding protein
B26: 36P, 72A (protein, listed as Rattus norvegicus)
chain: B1 chain with L36P, G38L
modifications: PEPTIDE (1)...(131) wild-type rat intestinal fatty acid binding protein
B27: 36Q, 72A (protein, listed as Rattus norvegicus)
chain: B1 chain with L36Q, G38L
modifications: PEPTIDE (1)...(131) wild-type rat intestinal fatty acid binding protein
B28: 36R, 72A (protein, listed as Rattus norvegicus)
chain: B1 chain with L36R, G38L
modifications: PEPTIDE (1)...(131) wild-type rat intestinal fatty acid binding protein
B29: 36S, 72A (protein, listed as Rattus norvegicus)
chain: B1 chain with L36S, G38L
modifications: PEPTIDE (1)...(131) wild-type rat intestinal fatty acid binding protein
B30: 36Y, 72A (protein, listed as Rattus norvegicus)
chain: B1 chain with L36Y, G38L
modifications: PEPTIDE (1)...(131) wild-type rat intestinal fatty acid binding protein
B31: 38A2, 72A (protein, listed as Rattus norvegicus)
chain: B1 chain with G38A
modifications: PEPTIDE (1)...(131) wild-type rat intestinal fatty acid binding protein
B32: 38E1, 72A (protein, listed as Rattus norvegicus)
chain: B1 chain with G38E
modifications: PEPTIDE (1)...(131) wild-type rat intestinal fatty acid binding protein
B33: 102P, 72A (protein, listed as Rattus norvegicus)
chain: B1 chain with G38L, L102P
modifications: PEPTIDE (1)...(131) wild-type rat intestinal fatty acid binding protein
B34: 38F1, 72A (protein, listed as Rattus norvegicus)
chain: B1 chain with G38F
modifications: PEPTIDE (1)...(131) wild-type rat intestinal fatty acid binding protein
B35: 102Q, 72A (protein, listed as Rattus norvegicus)
chain: B1 chain with G38L, L102Q
modifications: PEPTIDE (1)...(131) wild-type rat intestinal fatty acid binding protein

assay: Baseline fluorescence ratio Ro of probe in absence of analyte; settings: average baseline fluorescence ratio Ro of the clone probe; substitutions with respect to SEQ ID NO: 2

Compared with B1, B2 is lower in AvgOfRo: 0.34 for the first, 0.27 for the second.

Compared with B3, B4 is higher in AvgOfRo: 0.19 for the first, 0.26 for the second.

Compared with B5, B6 is lower in AvgOfRo: 0.50 for the first, 0.26 for the second.

First: B7
Second: B8
The AvgOfRo of the first is higher: 0.32 for the first, 0.30 for the second.

Molecule B9 has an AvgOfRo of 0.21.

same assay, conditions: baseline fluorescence ratio of probe, no fatty acid

Going from B10 to B11, the AvgOfRo rises from 0.17 to 0.24.

Compared with B12, B13 is higher in AvgOfRo: 0.18 for the first, 0.27 for the second.

Going from B14 to B15, the AvgOfRo rises from 0.38 to 0.42.

Going from B16 to B17, the AvgOfRo falls from 0.31 to 0.25.

First: B18
Second: B19
The AvgOfRo of the first is higher: 0.36 for the first, 0.34 for the second.

First: B20
Second: B21
The AvgOfRo of the first is lower: 0.29 for the first, 0.43 for the second.

Going from B22 to B23, the AvgOfRo falls from 0.32 to 0.16.

Going from B24 to B25, the AvgOfRo rises from 0.20 to 0.35.

Going from B26 to B27, the AvgOfRo falls from 0.44 to 0.30.

Going from B28 to B29, the AvgOfRo rises from 0.30 to 0.31.

First: B30
Second: B31
The AvgOfRo of the first is lower: 0.24 for the first, 0.32 for the second.

Going from B32 to B33, the AvgOfRo rises from 0.24 to 0.34.

Going from B34 to B35, the AvgOfRo rises from 0.19 to 0.34.

Compared with B11, B27 is higher in Ro: 0.187 for the first, 0.247 for the second.

Changes are numbered by the printed parent chain.
